Measurements published in PMC7608589, “Divergent architecture of the heterotrimeric NatC complex explains N-terminal acetylation of cognate substrates” (Nature Communications, 2020).
No constants are given. Whether binding was seen depends on the method and setting. For some assays here: In cells and extracts the contact can be indirect. Some entries that bind do so weakly or less than the wild type. For some assays here: Sequences can lack the tags named with a protein. Values belong to the binder of their own block, whether it stands above or below them.

Legend:
[1] = molecular target: T1, full-length Naa35 (residues 1–733), large auxiliary subunit of S. cerevisiae NatC, His6-tag cleaved (S. cerevisiae) (UniProt Q02197); assay: crystal structure; NatC (Naa30ΔC17, Naa35, Naa38ΔC11) co-expressed in E. coli and purified as a complex; apo (SeMet) and CoA-bound (1:3); sitting drops, 14.5–16.5% PEG 4000, 150 mM ammonium iodide, 100 mM sodium citrate pH 6.1–6.3; both purified
T1 sequence: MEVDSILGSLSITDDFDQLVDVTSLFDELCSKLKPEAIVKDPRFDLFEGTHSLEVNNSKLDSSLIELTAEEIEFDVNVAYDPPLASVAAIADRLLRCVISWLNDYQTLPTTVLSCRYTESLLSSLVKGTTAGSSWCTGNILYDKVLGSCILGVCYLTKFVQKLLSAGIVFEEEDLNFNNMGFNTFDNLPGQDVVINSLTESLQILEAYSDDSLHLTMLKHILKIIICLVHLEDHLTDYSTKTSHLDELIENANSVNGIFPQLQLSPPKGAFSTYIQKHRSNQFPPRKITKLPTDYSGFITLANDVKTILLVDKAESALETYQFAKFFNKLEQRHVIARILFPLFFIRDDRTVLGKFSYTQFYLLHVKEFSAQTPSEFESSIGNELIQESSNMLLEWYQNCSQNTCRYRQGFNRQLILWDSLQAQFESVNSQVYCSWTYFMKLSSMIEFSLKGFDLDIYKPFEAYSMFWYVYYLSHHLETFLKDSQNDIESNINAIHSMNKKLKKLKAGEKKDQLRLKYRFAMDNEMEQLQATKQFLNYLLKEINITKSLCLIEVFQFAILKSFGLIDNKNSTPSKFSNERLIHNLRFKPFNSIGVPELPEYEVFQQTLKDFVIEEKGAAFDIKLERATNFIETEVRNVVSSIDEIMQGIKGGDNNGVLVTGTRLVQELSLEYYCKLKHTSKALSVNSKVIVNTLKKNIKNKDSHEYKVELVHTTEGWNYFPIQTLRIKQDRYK

[2] = molecular target: T2, Naa30ΔC17 (residues 1–159), catalytic subunit of S. cerevisiae NatC (S. cerevisiae) (UniProt Q03503); assay: as above
T2 sequence: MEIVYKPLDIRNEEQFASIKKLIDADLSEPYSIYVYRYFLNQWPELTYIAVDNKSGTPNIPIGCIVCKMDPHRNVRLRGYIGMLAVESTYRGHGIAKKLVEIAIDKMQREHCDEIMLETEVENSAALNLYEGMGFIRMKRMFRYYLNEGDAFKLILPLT

[3] = molecular target: T3, Naa35ΔN17 (residues 18–733) (S. cerevisiae) (UniProt Q02197); assay: pull-down; NatC subunits co-expressed in E. coli; complexes affinity-purified via the Naa35 subunit (FL, ΔN17 or ΔN44); SDS–PAGE
T3 sequence: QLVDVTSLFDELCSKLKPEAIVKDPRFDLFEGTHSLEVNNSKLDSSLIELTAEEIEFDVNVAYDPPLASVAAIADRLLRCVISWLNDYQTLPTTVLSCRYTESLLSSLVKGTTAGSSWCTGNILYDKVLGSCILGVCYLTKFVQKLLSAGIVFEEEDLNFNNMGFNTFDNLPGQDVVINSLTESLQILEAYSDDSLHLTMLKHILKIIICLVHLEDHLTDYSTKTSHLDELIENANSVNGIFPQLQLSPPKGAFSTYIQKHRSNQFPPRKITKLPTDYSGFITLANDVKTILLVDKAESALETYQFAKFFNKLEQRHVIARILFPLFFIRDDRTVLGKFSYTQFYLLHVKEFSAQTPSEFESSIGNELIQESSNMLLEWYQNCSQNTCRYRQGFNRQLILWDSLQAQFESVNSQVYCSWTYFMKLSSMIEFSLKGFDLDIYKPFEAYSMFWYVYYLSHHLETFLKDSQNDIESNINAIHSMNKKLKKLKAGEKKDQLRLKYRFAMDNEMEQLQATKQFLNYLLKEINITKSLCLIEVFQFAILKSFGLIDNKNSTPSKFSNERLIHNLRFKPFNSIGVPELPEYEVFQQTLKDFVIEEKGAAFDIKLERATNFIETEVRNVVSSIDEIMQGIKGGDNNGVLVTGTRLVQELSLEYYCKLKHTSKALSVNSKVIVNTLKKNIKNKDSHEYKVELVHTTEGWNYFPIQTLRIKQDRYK

[4] = molecular target: T4, His6-tagged full-length (FL) Naa35 (residues 1–733) (S. cerevisiae) (UniProt Q02197); assay: as above
T4 sequence: T1 sequence

[5] = molecular target: T4, His6-tagged full-length (FL) Naa35 (residues 1–733) (S. cerevisiae); assay: pull-down; Naa30ΔC17 and full-length Naa35 co-expressed in E. coli without Naa38 (ΔNaa38); purified by the same protocol as NatC (Ni2+-sepharose, HRV 3C cleavage, second Ni2+ column, Superdex200)

binding [1]: binds | binding [2]: binds | binding [3]: binds | binding [4]: binds
B1: Naa38ΔC11 (residues 1–77), small auxiliary subunit of S. cerevisiae NatC (domain or fragment, UniProt P23059 1-77)
chain: MDILKLSDFIGNTLIVSLTEDRILVGSLVAVDAQMNLLLDHVEERMGSSSRMMGLVSVPRRSVKTIMIDKPVLQELT

binding [1]: binds | binding [3]: binds | binding [4]: binds | binding [5]: binds
B2: Naa30ΔC17 (residues 1–159), catalytic subunit of S. cerevisiae NatC (domain or fragment, UniProt Q03503 1-159)
chain: T2 sequence
